± gives the standard deviation of the averaged measurements. The entries are a selection whose mix differs from that of the whole data set.

Protein sequences, listed by entry. Tags and fused reporters are not part of them. Lines headed by an entry give the natural chain unless they say otherwise; changes in a name come on top.
UniProt P07947, whole entry, looked up: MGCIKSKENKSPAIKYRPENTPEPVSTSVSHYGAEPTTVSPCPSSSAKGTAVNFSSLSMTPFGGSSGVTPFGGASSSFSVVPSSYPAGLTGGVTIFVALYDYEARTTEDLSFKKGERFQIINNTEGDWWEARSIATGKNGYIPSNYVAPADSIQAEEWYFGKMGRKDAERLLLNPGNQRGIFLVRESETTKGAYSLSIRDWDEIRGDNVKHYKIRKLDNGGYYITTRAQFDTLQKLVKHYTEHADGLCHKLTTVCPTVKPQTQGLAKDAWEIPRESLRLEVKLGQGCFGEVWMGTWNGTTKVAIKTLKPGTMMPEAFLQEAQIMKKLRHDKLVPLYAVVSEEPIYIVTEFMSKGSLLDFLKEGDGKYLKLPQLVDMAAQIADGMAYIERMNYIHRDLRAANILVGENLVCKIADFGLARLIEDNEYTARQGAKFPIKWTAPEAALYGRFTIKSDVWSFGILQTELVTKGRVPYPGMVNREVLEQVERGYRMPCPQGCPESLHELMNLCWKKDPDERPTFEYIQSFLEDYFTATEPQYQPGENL
UniProt Q9ULV3: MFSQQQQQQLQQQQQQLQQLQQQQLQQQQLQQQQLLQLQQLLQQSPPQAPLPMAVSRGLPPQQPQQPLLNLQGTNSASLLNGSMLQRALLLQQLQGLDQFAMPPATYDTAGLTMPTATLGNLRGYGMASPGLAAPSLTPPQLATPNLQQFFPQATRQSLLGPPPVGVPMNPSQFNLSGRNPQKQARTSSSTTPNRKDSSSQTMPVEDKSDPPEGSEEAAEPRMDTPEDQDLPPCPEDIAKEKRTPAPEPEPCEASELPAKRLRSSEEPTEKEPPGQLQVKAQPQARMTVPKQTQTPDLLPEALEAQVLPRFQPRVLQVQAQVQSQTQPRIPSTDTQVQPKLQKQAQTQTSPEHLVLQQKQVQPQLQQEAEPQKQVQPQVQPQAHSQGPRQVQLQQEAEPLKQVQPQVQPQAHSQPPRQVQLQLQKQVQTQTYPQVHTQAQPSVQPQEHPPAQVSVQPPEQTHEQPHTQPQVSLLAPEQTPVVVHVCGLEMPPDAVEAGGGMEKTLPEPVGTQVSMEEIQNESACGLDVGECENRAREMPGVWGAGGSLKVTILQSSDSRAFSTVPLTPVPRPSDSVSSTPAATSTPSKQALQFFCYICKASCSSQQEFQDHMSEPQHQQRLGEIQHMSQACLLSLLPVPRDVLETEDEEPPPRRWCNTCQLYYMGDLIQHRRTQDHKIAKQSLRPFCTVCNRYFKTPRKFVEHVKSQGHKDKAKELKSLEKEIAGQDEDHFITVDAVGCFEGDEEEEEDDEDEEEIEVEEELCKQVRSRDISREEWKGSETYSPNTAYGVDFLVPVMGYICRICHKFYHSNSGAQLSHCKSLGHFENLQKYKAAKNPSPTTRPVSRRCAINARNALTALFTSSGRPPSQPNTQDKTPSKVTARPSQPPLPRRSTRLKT
UniProt Q01433: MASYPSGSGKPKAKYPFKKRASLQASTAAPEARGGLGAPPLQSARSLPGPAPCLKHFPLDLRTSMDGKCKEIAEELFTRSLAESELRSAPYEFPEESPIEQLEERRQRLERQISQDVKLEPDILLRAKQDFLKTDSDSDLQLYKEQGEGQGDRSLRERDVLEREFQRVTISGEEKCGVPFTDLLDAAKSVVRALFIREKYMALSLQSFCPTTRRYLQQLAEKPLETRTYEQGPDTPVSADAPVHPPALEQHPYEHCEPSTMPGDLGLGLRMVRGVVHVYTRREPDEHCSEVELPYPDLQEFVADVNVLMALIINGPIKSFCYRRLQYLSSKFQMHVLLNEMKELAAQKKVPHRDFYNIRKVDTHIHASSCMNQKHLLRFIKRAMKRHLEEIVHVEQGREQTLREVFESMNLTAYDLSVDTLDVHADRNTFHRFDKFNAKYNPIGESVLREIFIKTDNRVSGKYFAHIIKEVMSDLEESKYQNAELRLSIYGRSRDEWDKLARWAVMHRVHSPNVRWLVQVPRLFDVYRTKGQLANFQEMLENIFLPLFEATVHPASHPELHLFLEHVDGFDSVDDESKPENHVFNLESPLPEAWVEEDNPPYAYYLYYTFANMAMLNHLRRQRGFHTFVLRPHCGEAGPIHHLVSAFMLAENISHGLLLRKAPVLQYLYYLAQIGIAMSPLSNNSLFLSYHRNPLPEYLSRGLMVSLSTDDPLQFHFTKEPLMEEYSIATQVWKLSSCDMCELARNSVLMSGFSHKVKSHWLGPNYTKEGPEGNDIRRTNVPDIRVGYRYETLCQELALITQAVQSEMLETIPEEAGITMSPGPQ
UniProt Q9NX61: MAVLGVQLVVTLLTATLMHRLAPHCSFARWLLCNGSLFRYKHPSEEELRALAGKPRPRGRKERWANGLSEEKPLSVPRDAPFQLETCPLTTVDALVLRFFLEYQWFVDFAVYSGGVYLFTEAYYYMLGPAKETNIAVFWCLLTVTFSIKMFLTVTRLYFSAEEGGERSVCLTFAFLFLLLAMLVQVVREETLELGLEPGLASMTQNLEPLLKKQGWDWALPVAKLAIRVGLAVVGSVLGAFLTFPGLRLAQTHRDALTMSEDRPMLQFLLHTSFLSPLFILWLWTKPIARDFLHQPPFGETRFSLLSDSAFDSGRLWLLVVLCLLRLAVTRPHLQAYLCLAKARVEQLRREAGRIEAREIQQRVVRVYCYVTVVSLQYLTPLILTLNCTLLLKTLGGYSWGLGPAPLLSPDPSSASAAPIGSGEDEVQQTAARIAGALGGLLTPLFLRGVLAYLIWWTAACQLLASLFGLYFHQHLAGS
UniProt Q8NBJ7: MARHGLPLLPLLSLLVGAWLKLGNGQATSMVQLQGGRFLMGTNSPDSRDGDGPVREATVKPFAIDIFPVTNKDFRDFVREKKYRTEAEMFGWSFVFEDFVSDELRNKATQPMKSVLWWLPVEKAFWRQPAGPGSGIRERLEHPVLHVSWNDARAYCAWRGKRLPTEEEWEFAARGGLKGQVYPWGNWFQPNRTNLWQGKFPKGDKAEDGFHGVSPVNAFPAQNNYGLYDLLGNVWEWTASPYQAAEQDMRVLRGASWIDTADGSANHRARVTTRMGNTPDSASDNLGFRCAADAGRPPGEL
UniProt Q6UUV9: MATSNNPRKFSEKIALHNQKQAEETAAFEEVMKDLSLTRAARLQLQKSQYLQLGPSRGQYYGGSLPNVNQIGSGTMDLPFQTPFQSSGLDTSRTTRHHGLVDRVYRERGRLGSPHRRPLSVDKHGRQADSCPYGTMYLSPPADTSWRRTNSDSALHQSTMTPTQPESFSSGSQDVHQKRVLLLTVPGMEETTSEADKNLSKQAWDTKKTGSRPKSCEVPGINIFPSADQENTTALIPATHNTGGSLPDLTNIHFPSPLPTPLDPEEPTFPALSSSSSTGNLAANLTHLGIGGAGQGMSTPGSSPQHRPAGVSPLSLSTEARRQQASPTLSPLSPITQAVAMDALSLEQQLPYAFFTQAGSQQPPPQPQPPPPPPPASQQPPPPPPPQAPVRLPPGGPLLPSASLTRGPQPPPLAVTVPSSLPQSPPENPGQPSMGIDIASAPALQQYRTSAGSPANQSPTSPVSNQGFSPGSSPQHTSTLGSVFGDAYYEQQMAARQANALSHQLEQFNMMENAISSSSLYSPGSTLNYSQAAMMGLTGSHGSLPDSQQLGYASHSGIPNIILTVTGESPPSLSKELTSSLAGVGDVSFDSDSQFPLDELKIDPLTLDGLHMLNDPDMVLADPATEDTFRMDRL
UniProt Q9UQB8: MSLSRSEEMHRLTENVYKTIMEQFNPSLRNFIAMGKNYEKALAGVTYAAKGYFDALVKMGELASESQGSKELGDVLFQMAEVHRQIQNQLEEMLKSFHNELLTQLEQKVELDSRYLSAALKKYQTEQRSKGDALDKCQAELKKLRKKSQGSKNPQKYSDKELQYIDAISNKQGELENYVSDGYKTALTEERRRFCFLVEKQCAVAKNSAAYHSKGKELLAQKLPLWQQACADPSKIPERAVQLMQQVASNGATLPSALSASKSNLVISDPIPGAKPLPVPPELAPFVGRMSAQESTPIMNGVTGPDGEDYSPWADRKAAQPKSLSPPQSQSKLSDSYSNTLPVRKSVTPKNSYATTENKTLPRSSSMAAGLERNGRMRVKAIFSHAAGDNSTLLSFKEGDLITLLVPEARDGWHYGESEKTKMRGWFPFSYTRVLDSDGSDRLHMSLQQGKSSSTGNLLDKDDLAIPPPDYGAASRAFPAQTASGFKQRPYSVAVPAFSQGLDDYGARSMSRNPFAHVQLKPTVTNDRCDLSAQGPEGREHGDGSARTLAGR
UniProt Q99848: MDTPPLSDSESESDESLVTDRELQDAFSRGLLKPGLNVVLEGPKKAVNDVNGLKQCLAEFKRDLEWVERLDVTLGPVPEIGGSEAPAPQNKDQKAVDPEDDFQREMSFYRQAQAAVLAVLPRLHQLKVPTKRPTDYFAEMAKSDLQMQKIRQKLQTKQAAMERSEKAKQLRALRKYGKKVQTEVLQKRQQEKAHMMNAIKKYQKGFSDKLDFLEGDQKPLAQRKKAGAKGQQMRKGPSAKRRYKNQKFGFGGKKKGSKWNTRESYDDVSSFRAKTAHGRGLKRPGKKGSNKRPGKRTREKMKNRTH
UniProt Q13620, whole entry: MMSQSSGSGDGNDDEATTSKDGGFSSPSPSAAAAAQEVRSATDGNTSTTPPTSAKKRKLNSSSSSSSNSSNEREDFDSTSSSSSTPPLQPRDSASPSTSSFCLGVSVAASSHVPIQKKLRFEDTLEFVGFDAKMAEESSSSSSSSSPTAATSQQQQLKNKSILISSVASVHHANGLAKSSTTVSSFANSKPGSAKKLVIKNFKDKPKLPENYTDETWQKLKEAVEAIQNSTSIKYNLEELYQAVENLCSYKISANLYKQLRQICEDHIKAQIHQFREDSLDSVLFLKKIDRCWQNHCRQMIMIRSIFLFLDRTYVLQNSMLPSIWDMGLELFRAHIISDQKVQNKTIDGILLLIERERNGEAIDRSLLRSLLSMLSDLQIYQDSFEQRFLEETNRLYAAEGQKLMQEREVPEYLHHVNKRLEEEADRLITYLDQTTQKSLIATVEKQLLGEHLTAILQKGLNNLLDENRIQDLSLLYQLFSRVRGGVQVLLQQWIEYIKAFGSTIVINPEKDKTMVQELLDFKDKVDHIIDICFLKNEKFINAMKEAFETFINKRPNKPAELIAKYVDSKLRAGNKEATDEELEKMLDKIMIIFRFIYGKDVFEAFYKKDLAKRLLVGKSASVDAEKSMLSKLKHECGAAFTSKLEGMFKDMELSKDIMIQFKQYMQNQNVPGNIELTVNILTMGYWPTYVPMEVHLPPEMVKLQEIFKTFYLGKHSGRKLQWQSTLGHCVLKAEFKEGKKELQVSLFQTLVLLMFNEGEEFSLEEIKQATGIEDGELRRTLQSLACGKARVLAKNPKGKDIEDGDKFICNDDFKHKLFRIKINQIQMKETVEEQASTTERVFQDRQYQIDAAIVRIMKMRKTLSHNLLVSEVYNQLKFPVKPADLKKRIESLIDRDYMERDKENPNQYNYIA
UniProt Q9GZU7: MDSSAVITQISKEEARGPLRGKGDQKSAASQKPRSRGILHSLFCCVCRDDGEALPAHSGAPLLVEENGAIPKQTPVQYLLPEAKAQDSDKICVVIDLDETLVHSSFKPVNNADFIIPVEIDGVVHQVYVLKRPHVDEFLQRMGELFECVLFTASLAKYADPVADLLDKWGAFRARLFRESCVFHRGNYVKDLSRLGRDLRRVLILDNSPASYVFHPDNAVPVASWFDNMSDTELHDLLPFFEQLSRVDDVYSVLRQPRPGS
UniProt O43566: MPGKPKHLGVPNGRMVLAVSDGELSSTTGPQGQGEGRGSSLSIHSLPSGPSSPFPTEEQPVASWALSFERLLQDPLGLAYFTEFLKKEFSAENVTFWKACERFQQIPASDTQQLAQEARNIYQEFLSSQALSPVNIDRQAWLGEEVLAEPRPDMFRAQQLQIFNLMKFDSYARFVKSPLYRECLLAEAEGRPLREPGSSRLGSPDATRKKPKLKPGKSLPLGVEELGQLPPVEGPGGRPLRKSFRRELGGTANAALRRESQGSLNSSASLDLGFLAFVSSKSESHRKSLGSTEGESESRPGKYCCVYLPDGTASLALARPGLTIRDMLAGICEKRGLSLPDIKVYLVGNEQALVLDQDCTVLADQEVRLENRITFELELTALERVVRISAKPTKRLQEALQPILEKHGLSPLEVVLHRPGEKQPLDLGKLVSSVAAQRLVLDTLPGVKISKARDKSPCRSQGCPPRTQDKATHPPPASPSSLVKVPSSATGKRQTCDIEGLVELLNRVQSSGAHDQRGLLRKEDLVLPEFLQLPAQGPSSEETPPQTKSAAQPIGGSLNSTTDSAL
UniProt Q5J8M3, whole entry: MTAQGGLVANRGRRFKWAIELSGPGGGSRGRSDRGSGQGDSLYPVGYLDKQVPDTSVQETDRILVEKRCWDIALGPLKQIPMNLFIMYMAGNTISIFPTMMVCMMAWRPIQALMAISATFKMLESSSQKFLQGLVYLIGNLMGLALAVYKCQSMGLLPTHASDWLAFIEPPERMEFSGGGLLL
UniProt O95166, whole entry: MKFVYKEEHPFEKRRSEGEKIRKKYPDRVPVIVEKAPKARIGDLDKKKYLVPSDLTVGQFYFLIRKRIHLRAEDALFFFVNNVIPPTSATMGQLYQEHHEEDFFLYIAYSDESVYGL

Compound in the test: Nc1ncnc2c1ncn2[C@@H]1O[C@H](COP(=O)(O)OP(=O)(O)OP(=O)(O)O)[C@@H](O)[C@H]1O [adenosine triphosphate]
In words: NP40-soluble protein abundance relative to vehicle (solubility fold change) (ratio); higher = more soluble protein in presence of ATP. The following applies: concentration: 2mM. The method, boiled down: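 Values are fold changes against the detergent-processed vehicle, based on vsn-normalised intensities. Jurkat crude lysate was treated at eight concentrations from 0.1 to 10 mM (10 min at room temperature, then 3 min at 37 °C), solubilised with 0.8% NP40 and benzonase, ultracentrifuged and analysed by TMT-labelled LC-MS/MS over three independent experiments.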
In the case of “H7BYP4 and related entries (UniProt Q9H930)”, the NP40-soluble protein abundance was 0.959 ± 0.19.

For the target “J3QRU1 and related entries (UniProt P07947)”, the NP40-soluble protein abundance is 1.01 ± 0.12.

For “H0Y5D5 and related entries (UniProt Q9ULV3)”, the NP40-soluble protein abundance was 0.9655 ± 0.0055.

For the target UniProt I3L0E3, the NP40-soluble protein abundance turned out to be 0.949 ± 0.062.

In the case of “H0Y360 and related entries (UniProt Q01433)”, the NP40-soluble protein abundance was determined as 0.953 ± 0.023.

Regarding “H3BQD1 and related entries (UniProt Q93009)”, the NP40-soluble protein abundance came to 1 ± 0.078.

For the target “H3BPU4 and related entries (UniProt Q9UGJ1)”, the NP40-soluble protein abundance came out at 1.12 ± 0.072.

With “H0Y4B0 and related entries (UniProt O43414)”, the NP40-soluble protein abundance is 1.01 ± 0.07.

In the case of “K7EPA3 and related entries (UniProt Q9NX61)”, the NP40-soluble protein abundance stood at 0.929 ± 0.079.

As to “J3KQJ1 and related entries (UniProt Q8NBJ7)”, the NP40-soluble protein abundance turned out to be 0.957 ± 0.032.

For the target “M0QX46 and related entries (UniProt Q6UUV9)”, the NP40-soluble protein abundance worked out at 1.01 ± 0.025.

In the case of “I3L121 and related entries (UniProt Q96AJ1)”, the NP40-soluble protein abundance was 1.03 ± 0.17.

Regarding “I3L4C2 and related entries (UniProt Q9UQB8)”, the NP40-soluble protein abundance came to 0.93 ± 0.036.

For the target “K7EL68 and related entries (UniProt Q16543)”, the NP40-soluble protein abundance turned out to be 0.941 ± 0.02.

For the target “H7C3H7 and related entries (UniProt Q12873)”, the NP40-soluble protein abundance was found to be 1.23 ± 0.023.

As to “H7C2Q8 and related entries (UniProt Q99848)”, the NP40-soluble protein abundance worked out at 1.24 ± 0.15.

Turning to “I3L2C7 and related entries (UniProt P57678)”, the NP40-soluble protein abundance is 0.984 ± 0.032.

Consider L0R819 (UniProt Q9NWL6), for which the NP40-soluble protein abundance turned out to be 0.958 ± 0.13.

Regarding “H0Y997 and related entries (UniProt Q96J42)”, the NP40-soluble protein abundance was 0.935 ± 0.036.

Consider “H3BTA2 and related entries (UniProt P60510)”, for which the NP40-soluble protein abundance amounted to 0.978 ± 0.077.

In the case of “J3KNP4 and related entries (UniProt Q9NPR2)”, the NP40-soluble protein abundance stood at 0.969 ± 0.046.

Take “K4DI93 and related entries (UniProt Q13620)”: the NP40-soluble protein abundance turned out to be 0.974 ± 0.058.

For “K7EKE6 and related entries (UniProt P36776)”, the NP40-soluble protein abundance amounted to 0.998 ± 0.061.

As to “H0Y860 and related entries (UniProt Q9P246)”, the NP40-soluble protein abundance turned out to be 1.05 ± 0.051.

As to “K7EQ37 and related entries (UniProt Q70J99)”, the NP40-soluble protein abundance stood at 1.02 ± 0.068.

Regarding “K7ER53 and related entries (UniProt O95644)”, the NP40-soluble protein abundance is 1.06 ± 0.079.

With “H7C1Z7 and related entries (UniProt Q9GZU7)”, the NP40-soluble protein abundance came to 1.04 ± 0.09.

In the case of “H0Y8W3 and related entries (UniProt O43566)”, the NP40-soluble protein abundance was 1 ± 0.019.

With “I3L3K5 and related entries (UniProt O95476)”, the NP40-soluble protein abundance is 1.01 ± 0.074.

As for “H0YK61 and related entries (UniProt Q5J8M3)”, the NP40-soluble protein abundance worked out at 0.959 ± 0.07.

For the target “H6UMI1 and related entries (UniProt O95166)”, the NP40-soluble protein abundance came out at 0.932 ± 0.0017.

Take “H0YCX2 and related entries (UniProt Q96PV7)”: the NP40-soluble protein abundance was 1.19 ± 0.2.

For “H0YIE9 and related entries (UniProt O94952)”, the NP40-soluble protein abundance amounted to 1.04 ± 0.083.

“J3QTA2 and related entries (UniProt Q99933)”: the NP40-soluble protein abundance came out at 1.05 ± 0.053.

With “J3KSB5 and related entries (UniProt P21359)”, the NP40-soluble protein abundance came out at 1.03 ± 0.03.
